Results are given in words; binding and its absence hold for the method and conditions named. In cells and extracts the contact can be indirect. A result given as binding can be weak or reduced; the word gives no strength.

Chains of the proteins cited; added tags and fusions are not shown. Lines headed by an entry give the natural chain unless they say otherwise; changes in a name come on top.
UniProt Q96CV9: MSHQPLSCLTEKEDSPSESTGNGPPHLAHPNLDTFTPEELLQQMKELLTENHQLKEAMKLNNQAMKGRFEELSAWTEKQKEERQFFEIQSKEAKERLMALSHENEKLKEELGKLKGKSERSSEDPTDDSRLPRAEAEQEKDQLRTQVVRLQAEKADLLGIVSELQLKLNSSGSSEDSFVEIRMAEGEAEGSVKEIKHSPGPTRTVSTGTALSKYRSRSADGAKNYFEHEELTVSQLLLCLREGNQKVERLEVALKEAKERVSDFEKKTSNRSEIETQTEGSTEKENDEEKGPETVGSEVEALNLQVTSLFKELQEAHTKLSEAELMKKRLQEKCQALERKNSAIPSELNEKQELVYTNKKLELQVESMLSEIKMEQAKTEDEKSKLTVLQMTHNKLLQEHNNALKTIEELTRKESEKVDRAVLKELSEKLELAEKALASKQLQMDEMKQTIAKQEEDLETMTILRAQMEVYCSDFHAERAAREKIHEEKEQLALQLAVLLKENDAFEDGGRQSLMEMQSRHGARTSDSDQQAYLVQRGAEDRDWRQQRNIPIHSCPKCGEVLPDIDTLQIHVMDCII
UniProt Q9UHD2: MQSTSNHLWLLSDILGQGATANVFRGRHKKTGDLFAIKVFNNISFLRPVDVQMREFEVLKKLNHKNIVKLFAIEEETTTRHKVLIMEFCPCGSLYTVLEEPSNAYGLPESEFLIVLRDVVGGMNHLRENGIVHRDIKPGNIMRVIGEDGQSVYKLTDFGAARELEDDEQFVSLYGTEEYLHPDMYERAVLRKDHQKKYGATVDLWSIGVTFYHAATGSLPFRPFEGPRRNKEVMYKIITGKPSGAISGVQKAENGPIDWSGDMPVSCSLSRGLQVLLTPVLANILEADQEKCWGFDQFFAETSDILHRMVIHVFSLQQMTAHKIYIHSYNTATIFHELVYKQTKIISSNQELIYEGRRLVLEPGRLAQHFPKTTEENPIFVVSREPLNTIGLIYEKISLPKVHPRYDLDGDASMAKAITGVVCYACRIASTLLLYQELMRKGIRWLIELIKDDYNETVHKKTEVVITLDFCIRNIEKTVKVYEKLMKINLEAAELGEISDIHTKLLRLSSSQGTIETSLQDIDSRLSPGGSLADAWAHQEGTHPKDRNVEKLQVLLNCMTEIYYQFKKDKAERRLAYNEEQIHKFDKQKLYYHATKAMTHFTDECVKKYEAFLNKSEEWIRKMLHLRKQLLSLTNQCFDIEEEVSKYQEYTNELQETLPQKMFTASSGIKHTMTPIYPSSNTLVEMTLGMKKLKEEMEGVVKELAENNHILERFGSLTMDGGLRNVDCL

For experiment [1], the target named is Flag-tagged OPTN E50K (human) (UniProt Q96CV9). Kind of experiment: co-IP; Flag-tagged OPTN and GFP-tagged TBK1 co-transfected in HEK293T; lysate on anti-Flag agarose beads, 4 h at 4 °C; western blot with anti-Flag and anti-GFP. Background: In western blotting, separated proteins are transferred to a membrane and probed.
Experiment [2] has as its target Flag-tagged full-length OPTN (residues 1–577) (human) (UniProt Q96CV9). The experiment is described as above.

Take “GFP-tagged TBK1 (residues 1–729) (from UniProt Q9UHD2 1-729)”: in experiment [1], the binding result is given as “binds”. As for “GFP-tagged TBK1 E696K (from UniProt Q9UHD2)”, in experiment [2], the binding entry is on record as “binds weakly”.

The values are drawn from paper PMC5027247.
